The assay has as its target DOT1L histone H3 lysine 79 (H3K79) methyltransferase (human (endogenous in HPM)) (UniProt Q8TEK3). The experiment in a line: co-IP; whole-cell extracts of HPMs subjected to 100 J m^-2 UVB; lysis buffer 50 mM Tris pH 7.4, 1% Triton X-100, 150 mM NaCl; lysate treated with DNase; IP with anti-DOT1L or anti-XPC overnight at 4 °C, western blot; with and without UVB compared for XPC and H3K79me2. A general note: A western blot detects proteins with antibodies after separation by electrophoresis.

The chains behind the UniProt entries cited, without tags or fusion partners.
UniProt Q8TEK3: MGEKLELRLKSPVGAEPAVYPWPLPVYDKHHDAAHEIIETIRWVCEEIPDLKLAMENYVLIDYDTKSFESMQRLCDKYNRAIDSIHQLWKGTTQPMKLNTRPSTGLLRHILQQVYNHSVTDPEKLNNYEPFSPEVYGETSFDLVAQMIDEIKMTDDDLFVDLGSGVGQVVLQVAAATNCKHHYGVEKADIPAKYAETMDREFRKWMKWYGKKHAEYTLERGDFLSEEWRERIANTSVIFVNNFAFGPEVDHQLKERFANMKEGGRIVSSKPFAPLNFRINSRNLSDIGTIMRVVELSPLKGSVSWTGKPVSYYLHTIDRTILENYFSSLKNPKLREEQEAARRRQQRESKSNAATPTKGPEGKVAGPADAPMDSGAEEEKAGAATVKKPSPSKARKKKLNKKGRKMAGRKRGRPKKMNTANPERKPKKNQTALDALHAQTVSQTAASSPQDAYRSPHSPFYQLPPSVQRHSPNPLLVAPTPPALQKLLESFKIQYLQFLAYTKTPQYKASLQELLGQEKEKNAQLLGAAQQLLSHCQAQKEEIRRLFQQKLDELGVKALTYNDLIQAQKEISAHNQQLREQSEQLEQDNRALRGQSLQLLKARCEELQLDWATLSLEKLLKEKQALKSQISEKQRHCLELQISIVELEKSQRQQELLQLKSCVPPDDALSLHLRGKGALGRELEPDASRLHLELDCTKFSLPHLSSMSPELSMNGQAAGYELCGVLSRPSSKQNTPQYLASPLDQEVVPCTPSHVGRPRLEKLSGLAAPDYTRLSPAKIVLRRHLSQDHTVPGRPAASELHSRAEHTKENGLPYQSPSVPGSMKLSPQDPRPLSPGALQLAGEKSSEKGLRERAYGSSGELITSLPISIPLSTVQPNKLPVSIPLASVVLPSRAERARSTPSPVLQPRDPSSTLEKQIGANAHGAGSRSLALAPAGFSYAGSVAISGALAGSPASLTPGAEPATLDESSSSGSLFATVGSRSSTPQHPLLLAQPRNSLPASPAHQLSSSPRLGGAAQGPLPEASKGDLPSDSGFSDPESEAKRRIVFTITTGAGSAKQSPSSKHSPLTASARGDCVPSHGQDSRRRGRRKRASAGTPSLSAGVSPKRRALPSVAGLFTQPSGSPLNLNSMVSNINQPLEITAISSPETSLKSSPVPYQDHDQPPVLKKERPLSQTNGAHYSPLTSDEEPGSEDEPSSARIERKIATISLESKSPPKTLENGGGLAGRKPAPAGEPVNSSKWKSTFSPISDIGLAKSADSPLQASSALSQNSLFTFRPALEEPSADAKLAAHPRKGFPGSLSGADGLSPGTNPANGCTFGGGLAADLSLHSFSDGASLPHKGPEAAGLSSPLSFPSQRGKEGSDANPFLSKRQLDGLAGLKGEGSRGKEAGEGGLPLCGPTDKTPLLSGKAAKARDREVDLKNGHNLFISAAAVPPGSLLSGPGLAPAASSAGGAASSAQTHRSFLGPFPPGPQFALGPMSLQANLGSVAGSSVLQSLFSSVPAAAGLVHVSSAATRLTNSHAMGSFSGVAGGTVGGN
UniProt Q01831: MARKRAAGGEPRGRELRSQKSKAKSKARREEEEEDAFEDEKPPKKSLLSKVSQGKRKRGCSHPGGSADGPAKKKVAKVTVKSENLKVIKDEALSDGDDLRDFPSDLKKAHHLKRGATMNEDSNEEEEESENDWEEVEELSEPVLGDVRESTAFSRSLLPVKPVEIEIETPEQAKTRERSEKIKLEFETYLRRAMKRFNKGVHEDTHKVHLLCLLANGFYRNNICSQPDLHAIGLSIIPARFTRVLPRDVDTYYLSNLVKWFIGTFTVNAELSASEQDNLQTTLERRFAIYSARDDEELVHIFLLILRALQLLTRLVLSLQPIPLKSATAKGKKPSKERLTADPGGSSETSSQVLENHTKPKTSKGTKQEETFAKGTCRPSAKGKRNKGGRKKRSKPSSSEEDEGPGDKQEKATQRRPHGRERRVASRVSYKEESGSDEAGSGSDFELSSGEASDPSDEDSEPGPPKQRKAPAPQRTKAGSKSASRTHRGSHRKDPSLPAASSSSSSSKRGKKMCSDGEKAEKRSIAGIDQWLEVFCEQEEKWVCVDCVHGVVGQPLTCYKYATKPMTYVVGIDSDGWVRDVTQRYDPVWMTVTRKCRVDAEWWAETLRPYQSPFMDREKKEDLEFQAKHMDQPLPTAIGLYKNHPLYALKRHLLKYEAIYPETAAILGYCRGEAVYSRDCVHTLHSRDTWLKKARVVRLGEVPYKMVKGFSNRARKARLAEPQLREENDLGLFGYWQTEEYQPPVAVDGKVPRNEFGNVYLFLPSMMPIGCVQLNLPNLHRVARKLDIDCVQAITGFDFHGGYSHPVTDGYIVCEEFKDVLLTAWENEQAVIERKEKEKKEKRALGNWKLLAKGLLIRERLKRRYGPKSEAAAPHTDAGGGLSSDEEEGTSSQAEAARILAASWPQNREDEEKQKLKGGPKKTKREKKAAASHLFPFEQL

These results are taken from paper PMC5772495.

These are yes or no findings as the source states them, for the method shown. In cells and extracts the contact can be indirect. Some entries that bind do so weakly or less than the wild type.

Regarding “xeroderma pigmentosum, complementation group C (XPC) (from UniProt Q01831 1-940)”, the binding entry is listed as “binds”.
